Results are given in words; binding and its absence hold for the method and conditions named. Binding seen in cells or lysates may run through a third protein. A yes stands for co-enrichment or nearness to the bait. Other partners may have been found.
Target: His-tagged BRCA1-Δ11 (UniProt P38398)
Test: affinity purification with mass spectrometry; His-tagged BRCA1-Δ11 expressed in MCF7 cells, with or without irradiation; extracts on Ni-NTA affinity chromatography; eluates on SDS-PAGE, silver staining; band identified by MALDI-TOF mass spectrometry

Chains of the proteins cited; added tags and fusions are not shown.
UniProt P14635: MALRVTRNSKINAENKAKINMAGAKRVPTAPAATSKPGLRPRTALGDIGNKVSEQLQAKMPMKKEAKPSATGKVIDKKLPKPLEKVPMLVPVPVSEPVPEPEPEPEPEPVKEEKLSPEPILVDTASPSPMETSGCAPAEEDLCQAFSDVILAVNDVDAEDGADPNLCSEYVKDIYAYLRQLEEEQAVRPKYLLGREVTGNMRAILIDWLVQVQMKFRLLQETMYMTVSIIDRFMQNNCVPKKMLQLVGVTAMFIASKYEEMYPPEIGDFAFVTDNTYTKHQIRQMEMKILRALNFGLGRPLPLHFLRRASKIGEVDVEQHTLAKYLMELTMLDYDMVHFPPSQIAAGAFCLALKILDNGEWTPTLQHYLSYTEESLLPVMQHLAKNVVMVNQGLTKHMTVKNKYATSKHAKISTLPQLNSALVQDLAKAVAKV

binding: binds
Substance: cyclin B1 (endogenous, MCF7) (from UniProt P14635 1-433)

From publication PMC6191436
